In PubChem BioAssay AID504648 (National Center for Advancing Translational Sciences (NCATS), 2011):
“And” between values parts separate entries of the source, which are not always exact repeats. Equal values may be shown once. Hit rate of the full screen: of about 390,000 compounds, about 610 (0.16%) were called active. This list was built around the results that the source calls inconclusive (neither active nor inactive); the mix of calls is not that of the screen. The call rests on the fitted dose curve; in most records, active means well fitted inhibition curve with a large enough effect; inconclusive means small, poorly fitted or top-dose-only effect, or effect the other way, or another doubt; inactive means no such curve, though single readings can be large or run the other way. Potencies of inconclusive entries are doubtful fits and often do not repeat.

Test: Nrf2 qHTS screen for inhibitors: counterscreen for cytotoxicity
Conditions: A549 ARE-Fluc cells, CellTiter-Fluor viability, 18-24 h; activity change, negative = cytotoxicity: at 46 µM (top of the series)
Procedure, shortened: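 A549 ARE_Fluc cells in 5% FBS OPTI-MEM were exposed to compounds in concentration-response for 18-24 h at 37 deg C. Viability was read by CellTiter-Fluor fluorescence (Ex 405/Em 525) after 30 min, before the luciferase read.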
On the % scale 0 is the no-effect control and ±100 the full control effect; potency means the concentration at half of the fitted maximal effect.

Question: For `O=C(CCCOc1ccccc1)Nc1nnc(C2CCCO2)s1` (stereo not drawn), which Potency is on record?
Answer: The Potency was “inactive”.

Question: Which Potency does the source give for `Cc1ccc2nc(-c3ccc(NC(=O)CN4C(=O)NC(C)(c5ccc(OC(F)F)cc5)C4=O)cc3)sc2c1` (stereo not drawn) here?
Answer: The Potency was “inactive”.

Question: For `CCCCc1c(CCC)c(=N)c2ccccc2n1C`, which Potency is on record?
Answer: Its Potency is “inactive”.

Question: With `CCOC(=O)/C=c1/s/c(=C/c2ccccc2OC)c(=O)n1CC(=O)N1CCOCC1` as the molecule, how does the Potency read?
Answer: The Potency was inconclusive: 25.9 µM [falling, partial curve, poor fit].

Question: For `COc1ccc(N=C2NC(=O)C(CO)(CO)S2)cc1`, which Potency is on record?
Answer: The Potency was inconclusive: 14.6 µM [activator, partial curve, poor fit].

Question: For `COc1ccccc1C(=O)Nc1cccc(OCc2cc(=O)n3ccccc3n2)c1`, which Potency is on record?
Answer: The Potency was inconclusive: 29.1 µM [activator, partial curve, poor fit].

Question: With `Cc1ccc(-c2nc3ccccn3c2NCc2ccc3c(c2)OCO3)cc1` as the molecule, how does the Potency read?
Answer: Its Potency is “inactive”.

Question: For `Cc1ccc(NCC(O)C(O)C(O)CO)c(N=Nc2ccccc2)c1C` (stereo not drawn), which Potency is on record?
Answer: Its Potency is inconclusive: 29.1 µM [falling, partial curve, poor fit].

Question: Which Potency does the source give for `CN(CC(=O)Nc1cccc(F)c1)C(=O)c1cccc(S(=O)(=O)N2CC3(C)CC2CC(C)(C)C3)c1` (stereo not drawn) here?
Answer: The Potency was “inactive”.

Question: With `O=c1[nH][nH]cc1C=Nc1cc(Cl)ccc1O` as the molecule, how does the Potency read?
Answer: Its Potency is “inactive”.

Question: For `O=S(=O)(Nc1ccc2c(c1)OCCO2)c1ccc2oc3ccccc3c2c1`, which Potency is on record?
Answer: Its Potency is inconclusive: 32.6 µM [falling, single point].

Question: Which Potency does the source give for `Cc1onc(-c2ccccc2Cl)c1C(=O)NCc1ccccc1` here?
Answer: Its Potency is inconclusive: 18.4 µM [activator, partial curve, poor fit].

Question: For `Cc1ccc2cc(C#N)c(SCc3nnc(-c4ccccc4[N+](=O)[O-])o3)nc2c1`, which Potency is on record?
Answer: The Potency was “inactive”.

Question: Which Potency does the source give for `Cc1cccn2c(=O)c3cc(C(=O)NCC4CCCO4)c(=N)n(CC4CCCO4)c3nc12` (stereo not drawn) here?
Answer: Its Potency is inconclusive: 14.6 µM [activator, partial curve].

Question: Which Potency does the source give for `COc1ccc(-c2nnc(SCc3ccccn3)n2C)cc1` here?
Answer: Its Potency is “inactive”.

Question: With `O=C(CCNc1ccc(F)cc1)c1cccc([N+](=O)[O-])c1` as the molecule, how does the activity change, negative = cytotoxicity read?
Answer: Its activity change, negative = cytotoxicity is inactive: -9.71% [at 1.84 µM].

Question: Which Potency does the source give for `COc1ccc(-c2nc(-n3c(C)c(C(C)=O)c(C(C)=O)c3C)sc2C)cc1OC` here?
Answer: Its Potency is “inactive”.

Question: Which Potency does the source give for `CCc1ccc(NC(=O)Cn2c(=O)c3cccn3c3ccccc32)cc1` here?
Answer: Its Potency is “inactive”.

Question: For `C=CCn1c(C)cc(C(=O)COc2ccc(N(C)S(=O)(=O)c3ccc(NC(C)=O)cc3)cc2)c1C`, which Potency is on record?
Answer: Its Potency is “inactive”.

Question: With `O=C(CSc1nc2ccc(NC(=O)CSc3nnnn3Cc3ccccc3)cc2s1)Nc1ccccc1` as the molecule, how does the Potency read?
Answer: Its Potency is “inactive”.

Question: With `O=S(=O)(CCSc1nc2ccccc2o1)c1nc2ccccc2s1` as the molecule, how does the Potency read?
Answer: The Potency was “inactive”.

Question: Which Potency does the source give for `O=C(Nc1cc2c(cc1Br)OCCO2)c1cccs1` here?
Answer: The Potency was “inactive”.

Question: For `N#Cc1nc(-c2ccc(COc3ccc(Cl)cc3)o2)oc1N1CCCCC1`, which Potency is on record?
Answer: Its Potency is “inactive”.

Question: With `CCn1c(SCC(=O)N/N=C\c2ccccc2OCC(=O)O)nnc1-c1ccc(Cl)cc1` as the molecule, how does the Potency read?
Answer: Its Potency is “inactive”.

Question: Which Potency does the source give for `NS(=O)(=O)c1ccc(Cc2ncc(C(F)(F)F)cc2Cl)s1` here?
Answer: The Potency was inconclusive: 4.11 µM [activator, full curve, poor fit].

Question: Which Potency does the source give for `O=C(Nc1ccccc1-c1nnc(SCc2ccc(Cl)cc2)o1)c1ccccc1` here?
Answer: Its Potency is inconclusive: 2.31 µM [activator, single point].

Question: For `CCCCN(CC)CCNC(=S)Nc1ccc2nc(N3CCN(C)CC3)cc(C)c2c1`, which Potency is on record?
Answer: The Potency was inconclusive: 20.6 µM [falling, single point].

Question: Which Potency does the source give for `Cn1cc(/C=C2/SC(=O)N(CC(=O)Nc3ccc4c(c3)OCO4)C2=O)c2ccccc21` here?
Answer: Its Potency is inconclusive: 20.6 µM [falling, single point].

Question: With `Cc1snc(SCc2ccc(Cl)cc2)c1C#N` as the molecule, how does the Potency read?
Answer: Its Potency is inconclusive: 25.9 µM [activator, partial curve, poor fit].

Question: With `O=C(O)c1ccc(N=Nc2c(O)[nH]c3cc(Cl)ccc23)cc1` as the molecule, how does the Potency read?
Answer: The Potency was inconclusive: 8.2 µM [falling, partial curve].

Question: For `CCN(CC)CCNC(=O)c1ccc(NC(=O)c2ccc(Cl)c(S(=O)(=O)N3CCCCCC3)c2)cc1`, which Potency is on record?
Answer: Its Potency is inconclusive: 29.1 µM [falling, partial curve, poor fit].

Question: With `CCC(C(=O)NC1CCCCC1)n1c(SCc2ccccc2F)nc2ccncc21` (stereo not drawn) as the molecule, how does the Potency read?
Answer: Its Potency is inconclusive: 29.1 µM [falling, single point] and inconclusive: 16.4 µM [falling, single point].

Question: For `COc1cccc(/C=C(/C#N)c2ccc(F)cc2)c1OCc1cccc(C(=O)O)c1`, which Potency is on record?
Answer: Its Potency is “inactive”.

Question: For `Cc1ccc(C(CNS(=O)(=O)c2ccccc2)N2CCN(C)CC2)cc1` (stereo not drawn), which Potency is on record?
Answer: Its Potency is inconclusive: 7.31 µM [activator, partial curve, poor fit].

Question: Which Potency does the source give for `CC(C)n1cnc2c(NCc3ccccc3)cc(OCC3CCN(C)CC3)cc21` here?
Answer: The Potency was inconclusive: 29.1 µM [falling, single point].

Question: With `C=CCn1c(SCc2cc(=O)n3ccsc3n2)nnc1C1CCCCC1` as the molecule, how does the Potency read?
Answer: The Potency was inconclusive: 6.51 µM [activator, single point].

Question: For `COc1ccc(OC)c(Nc2c3ccccc3nc3ccccc23)c1`, which Potency is on record?
Answer: Its Potency is inconclusive: 29.1 µM [falling, partial curve, poor fit].

Question: With `O=C(c1ccc(S(=O)(=O)Cc2ccccc2F)c([N+](=O)[O-])c1)N1CCCCCC1` as the molecule, how does the Potency read?
Answer: Its Potency is inconclusive: 29.1 µM [falling, single point].

Question: Which Potency does the source give for `Cc1c(Cl)cccc1NC(=O)CNc1ccccc1F` here?
Answer: Its Potency is inconclusive: 23.1 µM [activator, partial curve, poor fit].

Question: With `CC(CC(=O)Nc1cccc(S(=O)(=O)N2CCCCC2)c1)c1ccccc1` (stereo not drawn) as the molecule, how does the Potency read?
Answer: Its Potency is inconclusive: 29.1 µM [falling, single point].

Question: With `Cc1ccc2c(c1)-c1c(ssc1=S)C(C)(C)N2C(=O)CSC1=NCCS1` as the molecule, how does the Potency read?
Answer: The Potency was inconclusive: 16.4 µM [falling, partial curve, poor fit].

Question: Which Potency does the source give for `CCOC(=O)C1=C(C)N=C2SC(C(=O)OC)=CC(=O)N2C1c1ccc(F)cc1` (stereo not drawn) here?
Answer: The Potency was inconclusive: 25.9 µM [falling, single point].

Question: For `CCCn1c(NCc2cc(OC)ccc2OC)nc2ccccc21`, which Potency is on record?
Answer: The Potency was inconclusive: 2.91 µM [activator, single point].

Question: With `CC(CSc1nc2ccccc2s1)Cn1c(N2CCCC2)nc2c1c(=O)[nH]c(=O)n2C` (stereo not drawn) as the molecule, how does the Potency read?
Answer: The Potency was “inactive”.

Question: Which Potency does the source give for `COc1cc2sc(-c3ccccc3OC)c(-c3ccc(OCCN4CCCCC4)cc3)c2cc1OC` here?
Answer: Its Potency is inconclusive: 29.1 µM [falling, single point].

Question: With `O=C(CNc1ccccc1)N/N=C/c1c[nH]c2ccccc12` as the molecule, how does the Potency read?
Answer: The Potency was inconclusive: 32.6 µM [activator, partial curve, poor fit].

Question: With `O=S(=O)(Nc1cccc2ccccc12)N1CCCC1` as the molecule, how does the Potency read?
Answer: The Potency was “inactive”.

Question: Which Potency does the source give for `COc1ccc(C(=O)/C=C/c2cn(CC(O)CN3CCCCCC3)c3ccccc23)cc1OC` (stereo not drawn) here?
Answer: The Potency was inconclusive: 16.4 µM [falling, single point].

Question: Which Potency does the source give for `COc1ccccc1/C=C1\SC(=S)N(CCC(=O)N2CCN(C)CC2)C1=O` here?
Answer: The Potency was inconclusive: 18.4 µM [falling, single point].

Question: With `CCCCn1c(SCC(=O)/C(C#N)=C(\C)N)nc2ccccc2c1=O` as the molecule, how does the Potency read?
Answer: Its Potency is inconclusive: 29.1 µM [falling, partial curve, poor fit].

Question: With `CCc1ccc(C2=CC(c3cc(Br)ccc3F)n3ncnc3N2)cc1` (stereo not drawn) as the molecule, how does the Potency read?
Answer: Its Potency is inconclusive: 25.9 µM [activator, partial curve, poor fit].

Question: For `COc1ccc(CCNC(=O)c2cc(-c3ccc(C)cc3)nc3n[nH]c(-c4ccccc4)c23)cc1OC`, which Potency is on record?
Answer: Its Potency is “inactive”.

Question: With `CCOc1ccc(C2c3c(ncn(-c4ccccc4)c3=N)Oc3ccc4ccccc4c32)cc1OCC` (stereo not drawn) as the molecule, how does the Potency read?
Answer: Its Potency is active: 20.6 µM.

Question: With `CCCCCOC(=O)c1cc(=O)[nH]c2ccccc12` as the molecule, how does the Potency read?
Answer: Its Potency is “inactive”.

Question: For `CC(=O)c1sc2c(c1C)c(=O)n(-c1ccc(Cl)cc1)c(=O)n2Cc1cc(=O)n2cc(Cl)ccc2n1`, which Potency is on record?
Answer: Its Potency is “inactive”.

Question: Which Potency does the source give for `Cc1cc(Nc2ccc(C)c(C)c2)c2ccccc2n1` here?
Answer: The Potency was inconclusive: 25.9 µM [falling, single point].

Question: With `CCCCCC(=O)N/N=C(\C)c1ccccn1` as the molecule, how does the Potency read?
Answer: The Potency was inconclusive: 10.3 µM [falling, partial curve].

Question: For `CS(=O)(=O)Nc1nc2n(n1)C(c1ccccc1)C=C(c1ccc(Br)cc1)N2` (stereo not drawn), which Potency is on record?
Answer: Its Potency is inconclusive: 29.1 µM [activator, single point].

Question: Which Potency does the source give for `COc1ccc(CN(Cc2cc3ccc(C)cc3[nH]c2=O)Cc2nnnn2C2CCCC2)cc1` here?
Answer: Its Potency is inconclusive: 29.1 µM [falling, single point].

Question: With `O=C(NCCO)c1ccccc1O` as the molecule, how does the Potency read?
Answer: Its Potency is “inactive”.

Question: Which Potency does the source give for `C[C@H](C[C@H](O)[C@H]1OC1(C)C)C1=C2C[C@H](O)C3[C@@]4(C)CCC(=O)C(C)(C)C4CC[C@]3(C)[C@@]2(C)CC1` (stereo partly drawn) here?
Answer: Its Potency is “inactive”.

Question: Which Potency does the source give for `COc1ccc(N2C(=O)C3C(C2=O)C2C=CC3C23CC3)c([N+](=O)[O-])c1` (stereo not drawn) here?
Answer: The Potency was “inactive”.

Question: With `O=C(COC(=O)C1(c2ccc(Cl)cc2)CCCC1)N1CCc2ccccc21` as the molecule, how does the Potency read?
Answer: The Potency was inconclusive: 14.6 µM [activator, partial curve, poor fit].

Question: For `COc1cc(/C=C2\SC(=O)N(CC(=O)Nc3cccc(C)c3)C2=O)cc([N+](=O)[O-])c1O`, which Potency is on record?
Answer: Its Potency is inconclusive: 20.6 µM [falling, partial curve].

Question: With `CCC1CN(C(=O)NCc2ccc(C)cc2)c2cc(C)ccc2O1` (stereo not drawn) as the molecule, how does the Potency read?
Answer: The Potency was inconclusive: 18.4 µM [falling, single point].

Question: Which Potency does the source give for `COC(=O)c1sc2ccccc2c1-n1cccc1C(=O)C(=O)Nc1ccc(C)cc1` here?
Answer: The Potency was inconclusive: 8.2 µM [falling, partial curve].

Question: Which Potency does the source give for `Cc1nnnn1/C(=C\c1ccccc1)C(=O)OCC(=O)NC(C)(C)C` here?
Answer: Its Potency is inconclusive: 18.4 µM [falling, partial curve, poor fit].

Question: For `CCCCCn1c(=NC(C)=O)c(C#N)cc2c(=O)n3ccccc3nc21`, which Potency is on record?
Answer: The Potency was inconclusive: 25.9 µM [activator, partial curve, poor fit].
